Laboratory results: paper PMC5931992
These are yes or no findings as the source states them, for the method shown. Some entries that bind do so weakly or less than the wild type.

Chains of the proteins cited; added tags and fusions are not shown. Residues count along the entry.
UniProt P07589, residues 33-2478: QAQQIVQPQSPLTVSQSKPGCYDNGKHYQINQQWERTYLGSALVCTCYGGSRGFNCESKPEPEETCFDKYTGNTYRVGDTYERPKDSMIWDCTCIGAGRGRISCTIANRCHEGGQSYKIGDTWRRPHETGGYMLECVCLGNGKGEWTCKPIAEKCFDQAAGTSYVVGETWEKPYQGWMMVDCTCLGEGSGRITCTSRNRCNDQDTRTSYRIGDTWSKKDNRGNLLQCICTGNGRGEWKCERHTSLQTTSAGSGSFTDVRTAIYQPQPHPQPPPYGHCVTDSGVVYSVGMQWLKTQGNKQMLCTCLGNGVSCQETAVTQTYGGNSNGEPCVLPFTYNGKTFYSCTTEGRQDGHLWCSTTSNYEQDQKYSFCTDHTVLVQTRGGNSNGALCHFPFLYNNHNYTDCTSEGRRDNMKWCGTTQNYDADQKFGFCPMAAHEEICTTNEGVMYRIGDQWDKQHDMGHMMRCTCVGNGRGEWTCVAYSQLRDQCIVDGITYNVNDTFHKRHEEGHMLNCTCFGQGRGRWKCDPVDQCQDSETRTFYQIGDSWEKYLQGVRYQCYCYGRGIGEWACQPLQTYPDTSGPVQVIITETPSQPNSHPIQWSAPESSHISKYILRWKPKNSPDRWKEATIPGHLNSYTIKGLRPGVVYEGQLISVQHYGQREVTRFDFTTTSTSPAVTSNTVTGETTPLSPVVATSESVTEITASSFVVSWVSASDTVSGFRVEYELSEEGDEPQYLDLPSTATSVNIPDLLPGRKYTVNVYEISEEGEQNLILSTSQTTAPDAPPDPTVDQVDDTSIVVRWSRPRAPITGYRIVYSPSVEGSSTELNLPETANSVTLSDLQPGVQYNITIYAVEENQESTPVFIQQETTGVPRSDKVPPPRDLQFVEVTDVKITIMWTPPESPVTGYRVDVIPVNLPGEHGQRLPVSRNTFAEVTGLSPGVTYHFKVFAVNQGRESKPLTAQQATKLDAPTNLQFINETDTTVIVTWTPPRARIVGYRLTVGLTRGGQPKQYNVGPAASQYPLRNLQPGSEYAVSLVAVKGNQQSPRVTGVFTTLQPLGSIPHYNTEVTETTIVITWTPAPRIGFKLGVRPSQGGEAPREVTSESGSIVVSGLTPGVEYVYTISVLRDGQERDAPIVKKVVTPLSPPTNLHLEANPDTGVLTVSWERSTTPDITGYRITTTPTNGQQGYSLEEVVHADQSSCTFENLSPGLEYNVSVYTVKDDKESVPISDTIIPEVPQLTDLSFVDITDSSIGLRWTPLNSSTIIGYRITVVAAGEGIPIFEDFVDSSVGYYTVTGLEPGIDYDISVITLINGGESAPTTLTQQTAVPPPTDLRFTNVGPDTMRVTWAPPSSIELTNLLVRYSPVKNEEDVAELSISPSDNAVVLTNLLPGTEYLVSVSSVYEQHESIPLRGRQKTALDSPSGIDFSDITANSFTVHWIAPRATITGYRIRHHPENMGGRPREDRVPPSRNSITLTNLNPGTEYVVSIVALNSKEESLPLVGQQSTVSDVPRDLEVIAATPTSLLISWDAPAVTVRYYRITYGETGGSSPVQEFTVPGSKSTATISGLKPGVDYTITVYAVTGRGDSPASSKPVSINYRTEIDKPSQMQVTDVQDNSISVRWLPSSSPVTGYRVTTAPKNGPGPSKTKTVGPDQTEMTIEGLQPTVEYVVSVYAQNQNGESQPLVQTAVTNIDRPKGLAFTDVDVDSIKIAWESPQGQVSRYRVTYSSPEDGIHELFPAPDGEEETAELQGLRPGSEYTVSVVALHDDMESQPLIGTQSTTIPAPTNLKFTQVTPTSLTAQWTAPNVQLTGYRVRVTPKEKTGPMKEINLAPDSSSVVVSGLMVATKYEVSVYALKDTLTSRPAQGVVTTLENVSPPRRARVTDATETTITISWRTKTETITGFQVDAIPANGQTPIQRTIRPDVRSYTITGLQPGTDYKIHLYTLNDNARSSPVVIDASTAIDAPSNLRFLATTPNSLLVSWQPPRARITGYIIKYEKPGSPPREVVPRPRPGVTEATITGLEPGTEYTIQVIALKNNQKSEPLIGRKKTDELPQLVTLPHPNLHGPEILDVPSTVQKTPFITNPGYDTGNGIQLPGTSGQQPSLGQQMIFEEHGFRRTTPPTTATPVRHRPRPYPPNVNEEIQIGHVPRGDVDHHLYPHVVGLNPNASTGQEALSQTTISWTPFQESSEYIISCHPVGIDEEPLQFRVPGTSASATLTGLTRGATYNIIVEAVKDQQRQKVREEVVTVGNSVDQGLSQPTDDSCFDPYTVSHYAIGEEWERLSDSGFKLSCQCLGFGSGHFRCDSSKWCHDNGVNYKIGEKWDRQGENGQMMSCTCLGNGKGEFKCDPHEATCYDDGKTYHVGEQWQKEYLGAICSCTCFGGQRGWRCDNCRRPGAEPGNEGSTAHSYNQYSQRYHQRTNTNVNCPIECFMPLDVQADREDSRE

Key:
fibronectin [1] = biological target: fibronectin (UniProt P07589); test: SEC-MALS; fibronectin, 0.45 mg on Superdex 200 Increase; 20 mM Tris-HCl pH 8, 100 mM NaCl; 25 °C; self-association; both purified
fibronectin [2] = biological target: fibronectin (UniProt P07589); test: IEX-MALS (anion exchange, AIEX-MALS); fibronectin, 20 mL of 0.05 mg/mL (1 mg) on Mono-Q; 20 mM Tris-HCl pH 8, 50 mM NaCl; 30CV gradient of 15-45% of buffer with 1 M NaCl; 25 °C; self-association; both purified

binding (fibronectin [1]): binds | binding (fibronectin [2]): binds
Substance: fibronectin (from UniProt P07589 33-2478)
